Results are given in words; binding and its absence hold for the method and conditions named. For some assays here: Binding seen in cells or lysates may run through a third protein. For some assays here: Tags and fused reporters may be left off the sequences shown.
Legend:
[1] = target: CmBBX19-YFP^N (Chrysanthemum morifolium); experiment: split reporter; BiFC with YFP^N and YFP^C fusions co-infiltrated by A. tumefaciens GV3101 into N. benthamiana leaves; YFP fluorescence by confocal microscopy 60 h after infiltration
[2] = target: BD-CmBBX19 (Chrysanthemum morifolium); experiment: two-hybrid; Matchmaker GAL4 system, yeast strain Y2HGold; bait in pGBKT7 (BD), prey in pGADT7 (AD); growth on SD/-Trp-Leu, then spot assay on SD/-Trp-Leu-His-Ade

| Binder | binding [1] | binding [2] |
| --- | --- | --- |
| AtABF3 (BiFC construct) (protein, UniProt Q9M7Q3 1-454) MGSRLNFKSFVDGVSEQQPTVGTSLPLTRQNSVFSLTFDEFQNSWGGGIGKDFGSMNMDELLKNIWTAEESHSMMGNNTSYTNISNGNSGNTVINGGGNNIGGLAVGVGGESGGFFTGGSLQRQGSLTLPRTISQKRVDDVWKELMKEDDIGNGVVNGGTSGIPQRQQTLGEMTLEEFLVRAGVVREEPQPVESVTNFNGGFYGFGSNGGLGTASNGFVANQPQDLSGNGVAVRQDLLTAQTQPLQMQQPQMVQQPQMVQQPQQLIQTQERPFPKQTTIAFSNTVDVVNRSQPATQCQEVKPSILGIHNHPMNNNLLQAVDFKTGVTVAAVSPGSQMSPDLTPKSALDASLSPVPYMFGRVRKTGAVLEKVIERRQKRMIKNRESAARSRARKQAYTMELEAEIAQLKELNEELQKKQVEIMEKQKNQLLEPLRQPWGMGCKRQCLRRTLTGPW | no binding |  |
| AtABF3 (AD fusion) (protein, UniProt Q9M7Q3 1-454) MGSRLNFKSFVDGVSEQQPTVGTSLPLTRQNSVFSLTFDEFQNSWGGGIGKDFGSMNMDELLKNIWTAEESHSMMGNNTSYTNISNGNSGNTVINGGGNNIGGLAVGVGGESGGFFTGGSLQRQGSLTLPRTISQKRVDDVWKELMKEDDIGNGVVNGGTSGIPQRQQTLGEMTLEEFLVRAGVVREEPQPVESVTNFNGGFYGFGSNGGLGTASNGFVANQPQDLSGNGVAVRQDLLTAQTQPLQMQQPQMVQQPQMVQQPQQLIQTQERPFPKQTTIAFSNTVDVVNRSQPATQCQEVKPSILGIHNHPMNNNLLQAVDFKTGVTVAAVSPGSQMSPDLTPKSALDASLSPVPYMFGRVRKTGAVLEKVIERRQKRMIKNRESAARSRARKQAYTMELEAEIAQLKELNEELQKKQVEIMEKQKNQLLEPLRQPWGMGCKRQCLRRTLTGPW |  | no binding |
